Test results published in patent US20240309360A1, “TRANS-ACTIVATORS AND METHODS AND USE THEREOF” (THE GOVERNING COUNCIL OF THE UNIVERSITY OF TORONTO, priority 2021, published 2024).
No constants are given. Whether binding was seen depends on the method and setting. In cells and extracts the contact can be indirect. Some results given as binding are weak or reduced against the parent protein; the word gives no strength.

Amino acid sequences for entries named in this document (tags omitted). Residues count along the entry.
UniProt Q92793, residues 2-2442: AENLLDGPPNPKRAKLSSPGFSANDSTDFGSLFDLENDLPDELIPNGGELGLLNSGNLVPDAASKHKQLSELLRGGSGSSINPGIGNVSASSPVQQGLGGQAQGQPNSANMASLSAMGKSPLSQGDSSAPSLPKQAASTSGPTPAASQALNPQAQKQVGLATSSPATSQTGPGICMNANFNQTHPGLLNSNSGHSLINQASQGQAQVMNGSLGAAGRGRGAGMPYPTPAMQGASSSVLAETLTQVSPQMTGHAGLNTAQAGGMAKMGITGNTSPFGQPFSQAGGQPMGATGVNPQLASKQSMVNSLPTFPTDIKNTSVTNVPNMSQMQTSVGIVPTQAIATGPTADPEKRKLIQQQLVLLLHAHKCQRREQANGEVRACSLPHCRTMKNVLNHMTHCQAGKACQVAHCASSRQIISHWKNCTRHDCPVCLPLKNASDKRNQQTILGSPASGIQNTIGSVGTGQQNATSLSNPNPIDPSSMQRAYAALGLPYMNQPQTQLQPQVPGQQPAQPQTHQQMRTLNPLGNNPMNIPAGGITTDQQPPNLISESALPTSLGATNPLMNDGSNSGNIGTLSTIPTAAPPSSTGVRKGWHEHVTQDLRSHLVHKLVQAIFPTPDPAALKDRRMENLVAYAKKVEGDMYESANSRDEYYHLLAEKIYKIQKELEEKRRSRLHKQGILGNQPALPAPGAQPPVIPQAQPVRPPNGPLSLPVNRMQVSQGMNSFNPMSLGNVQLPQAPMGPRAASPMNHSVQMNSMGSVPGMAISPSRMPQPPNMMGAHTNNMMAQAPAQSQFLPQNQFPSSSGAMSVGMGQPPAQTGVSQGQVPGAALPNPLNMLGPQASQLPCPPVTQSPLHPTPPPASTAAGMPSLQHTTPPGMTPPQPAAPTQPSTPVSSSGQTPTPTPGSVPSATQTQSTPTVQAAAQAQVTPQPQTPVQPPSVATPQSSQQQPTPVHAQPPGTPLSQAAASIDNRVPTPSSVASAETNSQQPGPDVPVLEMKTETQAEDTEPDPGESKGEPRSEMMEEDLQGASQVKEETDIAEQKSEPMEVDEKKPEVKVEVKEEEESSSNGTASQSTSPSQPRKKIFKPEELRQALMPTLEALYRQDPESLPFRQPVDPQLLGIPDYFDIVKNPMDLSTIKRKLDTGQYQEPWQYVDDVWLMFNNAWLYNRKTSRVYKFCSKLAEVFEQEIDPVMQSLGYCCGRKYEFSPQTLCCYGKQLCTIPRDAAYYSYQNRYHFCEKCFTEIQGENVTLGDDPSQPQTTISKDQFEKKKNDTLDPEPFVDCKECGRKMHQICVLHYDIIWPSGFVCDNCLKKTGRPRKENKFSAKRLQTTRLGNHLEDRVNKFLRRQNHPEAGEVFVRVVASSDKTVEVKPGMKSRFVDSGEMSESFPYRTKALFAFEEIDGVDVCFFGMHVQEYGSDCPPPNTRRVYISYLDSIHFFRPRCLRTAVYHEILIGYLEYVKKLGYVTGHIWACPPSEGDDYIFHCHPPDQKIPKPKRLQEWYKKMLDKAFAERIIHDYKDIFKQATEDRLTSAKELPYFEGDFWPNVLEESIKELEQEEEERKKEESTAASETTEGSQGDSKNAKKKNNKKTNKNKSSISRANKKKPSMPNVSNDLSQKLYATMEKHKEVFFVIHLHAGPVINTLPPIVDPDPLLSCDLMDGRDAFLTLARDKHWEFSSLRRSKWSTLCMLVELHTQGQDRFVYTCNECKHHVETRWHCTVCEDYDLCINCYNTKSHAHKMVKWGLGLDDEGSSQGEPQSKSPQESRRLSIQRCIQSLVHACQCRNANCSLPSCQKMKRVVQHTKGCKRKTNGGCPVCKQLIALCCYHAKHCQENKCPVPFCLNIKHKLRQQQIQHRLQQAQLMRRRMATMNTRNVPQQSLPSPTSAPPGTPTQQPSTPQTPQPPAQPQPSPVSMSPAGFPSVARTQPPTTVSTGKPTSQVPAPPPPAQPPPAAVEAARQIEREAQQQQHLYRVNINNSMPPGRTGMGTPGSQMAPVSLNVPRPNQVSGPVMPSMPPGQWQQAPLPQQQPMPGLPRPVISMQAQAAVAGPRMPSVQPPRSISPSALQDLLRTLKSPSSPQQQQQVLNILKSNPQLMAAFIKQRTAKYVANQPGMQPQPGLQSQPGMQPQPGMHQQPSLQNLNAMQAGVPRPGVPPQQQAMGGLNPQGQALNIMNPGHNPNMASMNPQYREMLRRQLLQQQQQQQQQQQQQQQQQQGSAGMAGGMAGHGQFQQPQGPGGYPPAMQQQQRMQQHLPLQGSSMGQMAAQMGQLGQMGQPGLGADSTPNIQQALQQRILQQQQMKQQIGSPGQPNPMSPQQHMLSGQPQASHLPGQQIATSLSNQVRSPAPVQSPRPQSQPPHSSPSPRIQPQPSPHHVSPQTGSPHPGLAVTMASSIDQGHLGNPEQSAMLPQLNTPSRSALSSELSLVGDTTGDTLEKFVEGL
UniProt Q09472, residues 2-2414: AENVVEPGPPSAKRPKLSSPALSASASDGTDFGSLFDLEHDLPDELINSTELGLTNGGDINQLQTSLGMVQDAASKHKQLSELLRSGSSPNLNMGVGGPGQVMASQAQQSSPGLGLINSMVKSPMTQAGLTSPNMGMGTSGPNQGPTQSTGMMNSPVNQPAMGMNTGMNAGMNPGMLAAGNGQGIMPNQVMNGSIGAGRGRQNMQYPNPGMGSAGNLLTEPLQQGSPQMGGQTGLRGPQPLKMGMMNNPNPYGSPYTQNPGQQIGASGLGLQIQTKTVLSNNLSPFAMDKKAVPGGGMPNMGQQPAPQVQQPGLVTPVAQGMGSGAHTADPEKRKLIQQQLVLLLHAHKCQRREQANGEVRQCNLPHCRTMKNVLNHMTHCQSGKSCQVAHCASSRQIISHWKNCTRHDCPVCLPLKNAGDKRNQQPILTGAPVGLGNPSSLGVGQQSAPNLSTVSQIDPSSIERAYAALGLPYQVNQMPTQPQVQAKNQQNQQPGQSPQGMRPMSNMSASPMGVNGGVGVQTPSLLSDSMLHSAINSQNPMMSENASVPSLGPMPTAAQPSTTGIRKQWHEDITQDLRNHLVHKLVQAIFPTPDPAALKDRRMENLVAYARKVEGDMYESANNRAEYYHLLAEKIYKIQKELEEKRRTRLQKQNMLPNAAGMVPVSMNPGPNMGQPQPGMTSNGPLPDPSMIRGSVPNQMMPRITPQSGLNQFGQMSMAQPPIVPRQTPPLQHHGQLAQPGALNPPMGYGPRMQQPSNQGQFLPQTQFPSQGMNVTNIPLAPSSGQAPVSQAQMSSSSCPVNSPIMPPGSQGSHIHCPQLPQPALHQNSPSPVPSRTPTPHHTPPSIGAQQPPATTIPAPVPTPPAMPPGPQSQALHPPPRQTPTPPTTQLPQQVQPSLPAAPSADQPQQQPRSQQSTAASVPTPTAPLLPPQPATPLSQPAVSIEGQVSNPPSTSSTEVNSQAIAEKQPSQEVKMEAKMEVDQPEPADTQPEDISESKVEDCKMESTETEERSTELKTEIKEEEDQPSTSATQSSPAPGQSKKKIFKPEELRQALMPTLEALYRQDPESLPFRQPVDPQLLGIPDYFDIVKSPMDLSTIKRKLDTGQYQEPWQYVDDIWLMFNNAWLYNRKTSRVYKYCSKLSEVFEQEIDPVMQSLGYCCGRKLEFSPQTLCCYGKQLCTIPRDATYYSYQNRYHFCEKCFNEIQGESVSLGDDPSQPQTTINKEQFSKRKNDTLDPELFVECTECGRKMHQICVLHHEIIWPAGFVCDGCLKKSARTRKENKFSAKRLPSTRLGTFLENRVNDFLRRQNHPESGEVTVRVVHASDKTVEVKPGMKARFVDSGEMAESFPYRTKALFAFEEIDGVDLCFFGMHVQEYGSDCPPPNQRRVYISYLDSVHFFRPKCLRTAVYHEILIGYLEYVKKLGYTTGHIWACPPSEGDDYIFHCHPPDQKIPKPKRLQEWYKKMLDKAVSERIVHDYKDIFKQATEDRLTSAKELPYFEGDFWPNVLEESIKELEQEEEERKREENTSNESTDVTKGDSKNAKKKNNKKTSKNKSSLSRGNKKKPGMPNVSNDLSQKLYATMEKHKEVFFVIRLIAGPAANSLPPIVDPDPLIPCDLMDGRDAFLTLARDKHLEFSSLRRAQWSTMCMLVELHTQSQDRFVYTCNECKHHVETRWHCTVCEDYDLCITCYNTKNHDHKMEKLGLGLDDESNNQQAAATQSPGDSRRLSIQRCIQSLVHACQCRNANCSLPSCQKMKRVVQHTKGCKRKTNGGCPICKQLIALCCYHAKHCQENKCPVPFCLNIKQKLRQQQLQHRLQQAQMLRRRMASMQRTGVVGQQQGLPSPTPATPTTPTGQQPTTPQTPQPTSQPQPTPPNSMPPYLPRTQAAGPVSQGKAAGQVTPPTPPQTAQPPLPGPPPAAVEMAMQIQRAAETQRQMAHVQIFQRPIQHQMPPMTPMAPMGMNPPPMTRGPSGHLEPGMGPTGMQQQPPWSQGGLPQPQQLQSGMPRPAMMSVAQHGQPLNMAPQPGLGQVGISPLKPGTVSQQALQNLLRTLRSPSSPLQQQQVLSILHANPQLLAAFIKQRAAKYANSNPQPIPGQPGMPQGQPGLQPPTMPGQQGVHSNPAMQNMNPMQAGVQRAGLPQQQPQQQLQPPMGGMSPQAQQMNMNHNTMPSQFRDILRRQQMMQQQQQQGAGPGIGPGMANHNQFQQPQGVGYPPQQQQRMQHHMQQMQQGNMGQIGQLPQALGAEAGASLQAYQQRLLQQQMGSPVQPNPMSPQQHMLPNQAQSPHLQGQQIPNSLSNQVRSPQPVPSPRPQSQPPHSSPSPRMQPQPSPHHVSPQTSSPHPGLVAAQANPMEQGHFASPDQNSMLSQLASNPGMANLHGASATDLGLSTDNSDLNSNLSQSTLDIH
UniProt Q6ZUJ4: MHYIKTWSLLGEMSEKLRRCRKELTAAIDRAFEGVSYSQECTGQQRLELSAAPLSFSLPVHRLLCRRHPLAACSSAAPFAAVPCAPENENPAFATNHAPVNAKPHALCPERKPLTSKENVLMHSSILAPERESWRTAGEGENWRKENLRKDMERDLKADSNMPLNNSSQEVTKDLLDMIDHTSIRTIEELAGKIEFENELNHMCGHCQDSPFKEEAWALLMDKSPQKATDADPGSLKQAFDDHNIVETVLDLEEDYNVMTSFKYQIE

Experiments:
[1] = molecular target: CBP (human) (UniProt Q92793); test: AP-MS and/or BioID2 in HEK293 cells (method not told for the pair)
[2] = molecular target: p300 (human) (UniProt Q09472); test: as above

- binding [1]: binds
- binding [2]: binds
Substance: C3orf62 fused to BioID2 (BirA from Aquifex aeolicus) and FLAG (from UniProt Q6ZUJ4 1-267)
